Data reported in article PMC10815869.
Positions count from the first letter of the chain named. For at least one entry, the source does not settle the construct or the ends of the probe. For part of these data: Weaker means in comparison with the reference protein, sequence or condition of that experiment. At least one verdict rests on a figure or table, not on a statement of the authors. Where a protein sequence is shown, tags need not be part of it.

Assays:
Assay in all cases: size exclusion chromatography
[1] = target: T1, WT NMAD-1A1-291 (Caenorhabditis elegans) (UniProt Q8MNT9); settings: comparison with mut3, DNA used for WT not stated explicitly; SEC: 25 mM HEPES pH 8.0, 100 mM NaCl, 5 mM beta-mercaptoethanol, 10 mM a-KG, 0.5 mM MnCl2; recombinant protein; residues 1-291; protein details: N-terminal 6xHis with TEV site (kept)
T1 sequence (looked up): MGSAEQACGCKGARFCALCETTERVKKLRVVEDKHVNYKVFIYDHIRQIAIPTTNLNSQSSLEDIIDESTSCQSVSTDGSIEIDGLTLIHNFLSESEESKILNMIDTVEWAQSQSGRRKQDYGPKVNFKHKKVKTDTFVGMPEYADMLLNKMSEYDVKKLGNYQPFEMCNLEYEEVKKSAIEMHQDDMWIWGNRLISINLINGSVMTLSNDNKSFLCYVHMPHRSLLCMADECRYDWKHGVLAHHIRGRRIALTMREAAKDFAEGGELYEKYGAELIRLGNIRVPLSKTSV

[2] = target: T2, mut3 NMAD-1A1-291 E109K,Q112K,Q114K (Caenorhabditis elegans) (UniProt Q8MNT9); settings: 10 mM a-KG, 0.5 mM MnCl2, increased affinity vs WT, SEC: 25 mM HEPES pH 8.0, 100 mM NaCl, 5 mM beta-mercaptoethanol, recombinant protein, residues 1-291, protein details: 6xHis removed by TEV
T2 sequence (looked up): T1 sequence (looked up) with E109K, Q112K, Q114K

[3] = target: T3, mut3 NMAD-1A21-291 E109K,Q112K,Q114K (Caenorhabditis elegans) (UniProt Q8MNT9); settings: 10 mM a-KG, 0.5 mM MnCl2, increased affinity vs WT, SEC: 25 mM HEPES pH 8.0, 100 mM NaCl, 5 mM beta-mercaptoethanol, recombinant protein, residues 21-291, protein details: N-terminal 6xHis with TEV site (kept)
T3 sequence (looked up): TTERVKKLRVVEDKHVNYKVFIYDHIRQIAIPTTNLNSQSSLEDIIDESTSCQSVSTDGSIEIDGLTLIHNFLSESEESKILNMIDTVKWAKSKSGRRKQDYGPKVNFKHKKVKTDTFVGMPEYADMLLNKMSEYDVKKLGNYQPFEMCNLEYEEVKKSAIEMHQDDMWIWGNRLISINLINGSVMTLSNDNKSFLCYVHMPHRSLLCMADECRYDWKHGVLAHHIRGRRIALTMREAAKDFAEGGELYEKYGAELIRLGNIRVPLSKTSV

Q: What does the source list for “GCAGCAACAGAAGAGGATCTCA / CTGAGATCCTCTTCTGTTGCTG [(G/C) 21 bp dsDNA, 5'-overhang]”?
A: binding result [1]: binds more weakly; binding result [2]: binds; binding result [3]: binds
